Measured values as given in PubChem BioAssay AID1347423 (Functional Genomics Laboratory (NCATS/FGL), 2020).
About 210 (0.4%) of roughly 52,000 sequences were called active.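 How the source made its calls: active means gene whose silencing raises cell survival under the drug, median off-target-corrected z-score across its silencing RNAs 2 or more; inactive means the rest.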 The list shows a part of the results.

Assay: Resistance to Poly (ADP-Ribose) Polymerase inhibitor: Gene Identification via Genome-wide siRNA Screen
Settings: mouse BRCA2 R2336H ES cells, olaparib, CellTiter-Glo viability; active compounds read high
Summary of the method: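 Mouse BRCA2 R2336H ES cells were reverse-transfected with siRNA (20 nM final), treated at 48 h with 500 nM olaparib, and read by CellTiter-Glo after 72 h. Scores: MAD-based z per siRNA, median per gene, seed off-target correction.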

| Sequence | z-score |
| --- | --- |
| GGUGUCAGCGAAAAGCAGUTT against Ring1 | inactive: -1.25 |
| CCGGAGAUUUGCUCUUAGUTT against Pcdhb3 | inactive: 0.522 |
| GGUAUGACCCAGAAGAAGGTT against Pip5k1c | inactive: -1.89 |
| CCGACAAAAGGUAUUCUGGTT against Aatf | inactive: -1.4 |
| GGAAGGAUAUUGGUUACCATT against Zmynd11 | inactive: 0.0875 |
| GGUAACUGAGAAAACCAGATT against Adam29 | active: 1.12 |
| CCUUUAAAGUAAGCAUGUGTT against Slc27a4 | inactive: 0.658 |
| GCCGUUCCUAUGUCUAUGCTT against Serpina1b | inactive: 0.809 |
| GCAGCAUCGCGUAGAAACATT against Nola1 | inactive: -3.04 |
| CCGGUACCUAAACUACUUCTT against Unc5b | inactive: 0.776 |
| GCGUAAACCAAGAAAGCUUTT against Mcl1 | inactive: -3.18 |
| GUCAGAACAAAACCAAAUGTT against E330013P04Rik | inactive: -1.17 |
| GGAAGAUAAGCUAAAUAUCTT against Clca4 | inactive: 0.407 |
| CCAACAUCUCUGUAUACUGTT against Olfr8 | inactive: -0.812 |
| GGUGAUGAAAAUGACAUUCTT against Atp1b4 | inactive: 0.549 |
| GGGUUGCUAAAUUUGAAACTT against Psg25 | inactive: 0.742 |
| GGAAGCAUUAUUGGUCAAUTT against Tcf3 | inactive: -0.338 |
| GCUGCUCUGCUAUAAGUAUTT against Kptn | inactive: 1.13 |
| GGGCAAGGUGUAUUGUCAATT against D830050J10Rik | inactive: 0.223 |
| GGAUGAUUUAUGGUUACUGTT against V1rg3 | inactive: -1.46 |
| GGAUCAUUUUGAACAAGGCTT against Srl | inactive: 0.178 |
| GGCUUGGUGACAGGACUAUTT against 2310008H04Rik | inactive: -2.94 |
| GGCUAUGGUUGUGAGUCAATT against Btbd7 | inactive: 0.141 |
| GGACUGACUCUUUUUUAACTT against Ube1c | inactive: -0.322 |
| GGAGAAAGUCUUUGUGAACTT against Lipc | inactive: 0.496 |
| GGAAAACAAGGAACAUGCGTT against Mja1l | inactive: 1.47 |

2 consecutive records from above:

| Sequence | z-score |
| --- | --- |
| GUCAGAACAAAACCAAAUGTT against E330013P04Rik | inactive: -1.17 |
| GGAAGAUAAGCUAAAUAUCTT against Clca4 | inactive: 0.407 |

(further entries)

| Sequence | z-score |
| --- | --- |
| GGAAGUCAUUUUUUCCAAGTT against 8430410K20Rik | inactive: -0.208 |
| GCAGUACAAGCGAUUUGUGTT against Duox2 | inactive: -0.0493 |
| GGGUUAAAGUGCCACGUACTT against Apoc4 | inactive: 0.201 |
| GCAAGAAAAUCUGAUGCCGTT against Sumf2 | inactive: -0.0251 |
| GGAAGUUGGAGAAGCAAAATT against 2900042E01Rik | inactive: -1.32 |
| GGGUAGGUUUGAAAGAAAGTT against Zfp191 | inactive: 2.23 |
| CCGAAAUGUGUGUUUUAAATT against Vapb | inactive: 0.159 |
| GCACGUGAUGCAAGUUCUATT against 0610042C05Rik | inactive: -0.765 |
| GCCUAUUGUAAAUACAGGUTT against Bdnf | inactive: 0.525 |
| GGCAAACUGCGUGUACACUTT against 1110014L17Rik | inactive: -0.755 |
| GGAUGAACAGGAGAAAGUCTT against Irak2 | inactive: 0.0975 |
| GCCUCGAUCUGAUCUAGAGTT against 9430056A22Rik | inactive: -0.586 |
| GCUACUCAUUGCUAAGUGUTT against Kcnmb2 | inactive: 0.752 |
| GGUGGACAAGAUGAUGGAATT against Gps2 | inactive: -0.315 |
| GGAUUACAAAUGGAGAAAGTT against Tmem16d | inactive: 1.12 |
| GCCCAACAAAAAGUUGAUUTT against Vrk2 | inactive: 0.557 |
| CCAACAUCUAGAGAGUCUGTT against Olfr1031 | inactive: 0.0263 |
| GCAGAUAAUUUUAACCCUCTT against Inpp5b | inactive: -0.499 |
| GGUCCUCCAAUGGAACAAGTT against Rhced | inactive: -1.27 |
| GGAAGACUUUGGCUUUGAATT against Tfpt | inactive: 0.732 |
| GCUUUUCGGAGCUCUAUAUTT against Sipa1 | inactive: 0.368 |
| CCAUUUAAACUAGAUCCCATT against Mid2 | inactive: 0.0835 |
| GGAGACUUCAGCACCUUUGTT against Slp | inactive: 0.531 |
| GCUAAGAGCUGAAAGUGAATT against 4933426L22Rik | inactive: 0.2 |
| GCGAUGCUACUGAAAGCGATT against Catsper2 | inactive: 0.928 |
| CCAUCUCUCCAAAGGGCUGTT against Olfr32 | inactive: -2.4 |

A second format for some results above.
GGAAGUCAUUUUUUCCAAGTT against 8430410K20Rik
  z-score: inactive: -0.208
GCAGUACAAGCGAUUUGUGTT against Duox2
  z-score: inactive: -0.0493

Additional results

| Sequence | z-score |
| --- | --- |
| GCACACAUCAAGAAACUUGTT against Mxi1 | inactive: -0.432 |
| GGUGUCAAAAGUUUUCUAGTT against Tcf23 | inactive: 0.311 |
| GGCUUUCAUCGUUUUUGCCTT against Rbm12 | inactive: -0.818 |
| GGUGGAUUCUAUUAAAUGCTT against A830093M07 | inactive: 0.559 |
| GGUUUGUGGGCUUUCACACTT against Pdxp | inactive: 0.869 |
| CCAUUUGACAAGACUGCCATT against B430201G11Rik | inactive: -0.566 |
| ACGCAAGUCACCAUCUUCUTT against Tas2r118 | inactive: -0.475 |
| CGGAAGUGUCAAAACCAGATT against Zfp509 | inactive: 0.0415 |
| GGAUGUAAAAUGCAGUUUATT against Tmsb4x | inactive: 2.07 |
| GCAGCUUCGAAACCUACCATT against 1110003P22Rik | inactive: -0.459 |
| GGCUUUGCUAGACACGGCUTT against BC011210 | inactive: -0.291 |
| CGAAGCACAUAAACUAAAGTT against Ero1l | inactive: 0.0986 |
| CCUGACUAUCUGAAAGCUATT against Sod2 | inactive: 0.00276 |
| GCAGGACAGCAGGAAAAGUTT against 2610028H24Rik | inactive: -1.4 |
| GGAGACAGUGAGACAGAUATT against Ncoa3 | inactive: 2.27 |
| CCUCAAGCCUCACAAUUCATT against 6720480D16Rik | inactive: 0.389 |
| GGAGAAACAGCAGUACUUGTT against Hmg20b | inactive: 0.942 |
| GGUCAUCAACAGCAAAAACTT against 1810054G18Rik | inactive: 0.286 |
| GGAAAGCAGACUCAAUGAGTT against 1110018M03Rik | inactive: 1.28 |
| GCUCGCUCUCAAAUUUUCGTT against Catsper1 | inactive: 1.08 |
| GGUACAGAACUCAUUUUUGTT against Grm6 | inactive: 1.46 |
| CCAUUUGUGUAACACCAAUTT against Wbscr1 | inactive: -0.277 |
| GGUGAAAAUCAAGCUUGCUTT against Htr1d | inactive: 0.216 |
| GGUGCAUUCCUUGUGAAUGTT against Ctbp2 | inactive: -0.428 |
| GGAGGAACCUCAGAAACAGTT against D2Ertd750e | inactive: -2.79 |
| CGACUGGGUCUUAUGUUUATT against Tas2r121 | inactive: -0.307 |

| Sequence | z-score |
| --- | --- |
| GCCAUGGUAAACAUCUUAUTT against Olfr827 | inactive: 0.289 |
| CCAGAUAAACCAUAUCCCATT against Flrt2 | inactive: 0.0114 |
| GGCUCAGAAUUAUCUUAGATT against Mmp7 | inactive: -0.996 |
| GGCAUCACACAGGAGAAAATT against Ppp1r16b | inactive: 0.269 |
| GGUCGCUACGUUUCUACAATT against Loxl1 | inactive: -1.05 |
| GCUAAGAACUUGAUCAACCTT against Camk2g | inactive: -1.16 |
| GGGUUUAGAGACCCUGAGATT against Klc2 | inactive: -1.81 |
| GGAACAAUUGUUUGAACCCTT against Fem1a | inactive: 0.44 |
| GGAAGACUCUGAAUUAGGGTT against Dusp13 | inactive: 0.537 |
| GCCCAAAAUGUAAUCAACUTT against 1810007M14Rik | inactive: -1.24 |
| GGCUCCAAGCACUAAAUAATT against LOC434198 | inactive: -1.7 |
| CCACUGAUGACAUGACUCUTT against V1rd13 | inactive: 1.86 |
| GGUUAAAGGUCAGAUUUAGTT against Dapk2 | inactive: 0.839 |
| CCAAGUUCACAAUUGUUCUTT against Gm457 | inactive: -0.19 |
| GGAUGACCAUGAUCACAAATT against C130038G02Rik | inactive: -1.88 |
| GGUAUUGCUGUGCUGAGGATT against Olfr675 | inactive: 0.749 |
| CGAAGUUCCUGGAAAAUAUTT against Tbc1d7 | inactive: -1.98 |
| CGAGAACCGACCAUGCAGUTT against Np15 | inactive: 1.26 |
| GGUUGAAAUAAGAACCAUATT against 1700073K01Rik | inactive: -0.171 |
| GGCUGUGCAACAGAAAAUGTT against 2210407C18Rik | inactive: -1.07 |
| GGCUCUGCUAUUCACCAGUTT against Olfr1008 | inactive: -0.687 |
| GGUACACAUUCACCAUAGCTT against D930031B21Rik | inactive: -0.816 |
| GGAAUAUAGAAGACUAAGUTT against 4921507A12 | inactive: -0.202 |
| ACUGUCAUGCACCCUAAAGTT against Olfr132 | inactive: -1.18 |
| CCAUGAAGACUCAUCUCUGTT against Igsf4b | inactive: -1.18 |
| GGAGGACUAAUGGUGUUCATT against 1810048J11Rik | inactive: -0.937 |
